In PubChem BioAssay AID588590 (National Center for Advancing Translational Sciences (NCATS), 2011):
Out of some 390,000 compounds screened, about 4,000 (1%) were called active. The shares of active, inactive and inconclusive entries below differ from those in the screen. Calls follow the shape of the dose curve; as a rule, active = well fitted inhibition curve with a large enough effect; inconclusive = small, poorly fitted or top-dose-only effect, or another doubt; inactive = no such curve, though single readings can be large or run the other way. Potencies beside an inconclusive call are fits to weak or partial responses and may not hold up.
Potency is read from the fitted curve at half-maximal effect.

By UniProt entry, the sequences of proteins in these tests, tags left out. Where a name states a change or a piece, a line headed by the entry shows the natural chain unless it says otherwise.
UniProt Q9UNA4: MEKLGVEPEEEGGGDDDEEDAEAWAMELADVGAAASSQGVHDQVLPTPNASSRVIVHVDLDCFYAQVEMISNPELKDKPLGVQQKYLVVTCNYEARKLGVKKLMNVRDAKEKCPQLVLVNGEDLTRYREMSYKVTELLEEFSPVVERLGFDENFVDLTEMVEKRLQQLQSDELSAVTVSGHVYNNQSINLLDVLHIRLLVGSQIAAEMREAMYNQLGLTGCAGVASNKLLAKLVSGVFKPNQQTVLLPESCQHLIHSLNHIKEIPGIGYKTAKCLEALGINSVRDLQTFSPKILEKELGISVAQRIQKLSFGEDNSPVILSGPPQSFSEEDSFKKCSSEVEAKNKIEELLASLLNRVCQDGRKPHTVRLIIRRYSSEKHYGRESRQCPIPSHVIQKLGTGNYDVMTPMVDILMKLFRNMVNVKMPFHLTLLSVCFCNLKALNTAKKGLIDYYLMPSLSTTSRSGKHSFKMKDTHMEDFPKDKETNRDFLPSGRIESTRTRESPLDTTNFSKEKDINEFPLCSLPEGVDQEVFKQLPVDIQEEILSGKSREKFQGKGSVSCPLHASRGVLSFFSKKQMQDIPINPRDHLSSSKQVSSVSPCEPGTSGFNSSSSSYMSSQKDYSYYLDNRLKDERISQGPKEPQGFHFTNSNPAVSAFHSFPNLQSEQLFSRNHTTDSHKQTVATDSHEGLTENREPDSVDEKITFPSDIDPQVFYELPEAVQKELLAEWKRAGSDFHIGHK

These compounds were tested against DNA polymerase iota (Homo sapiens) (UniProt Q9UNA4) (assay: qHTS for Inhibitors of Polymerase Iota). Settings: Pol iota fluorescent replication assay, 10 min; series mostly up to 115 µM.
Procedure, shortened: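 Pol iota at 10 nM preincubated 15 min with compounds at room temperature; reaction started with fluorescent substrate, 50 nM final. Fluorescence read kinetically at 0 and 10 min; buffer-only wells as negative control.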
With `CC(=O)c1ccc(NC(=O)CCc2nnc3ccc(NCc4ccco4)nn23)cc1` the Potency was inconclusive: 35.5 µM [inhibitor, full curve].
`Cc1coc(C)c1C(=O)CC1(O)C(=O)N(C)c2ccc(Cl)cc21` (configuration not stated) was tested, and the Potency was inconclusive: 31.6 µM [inhibitor, partial curve, poor fit].
For `COc1ccc(C(=O)Nn2c(C)nc3ccccc3c2=O)cc1[N+](=O)[O-]`, the Potency was inconclusive: 70.8 µM [inhibitor, single point].
For `O=c1cc(-c2ccccc2Cl)oc2c(NS(=O)(=O)c3cccs3)ccc(O)c12`, the Potency was inconclusive: 89.1 µM [inhibitor, single point].
For `O=C(N/N=C/c1ccc2c(c1)OCO2)c1ccc2ccccc2n1`, the Potency was inconclusive: 31.6 µM [inhibitor, partial curve, poor fit].
With `CC1=C(C(=O)OC2CCCC2)C(c2c(F)cccc2Cl)CC(=O)N1` (configuration not stated) the Potency was “inactive”.
With `COc1ccc2cc3cc(C(=O)Nc4ccc5c(c4)OCCO5)oc3nc2c1` the Potency was inconclusive: 31.6 µM [inhibitor, partial curve].
In the case of `COc1ccc(C(=O)c2cn(CC(=O)Nc3cc(OC)cc(OC)c3)c3ccc(OC)cc3c2=O)cc1`, the Potency is reported as inconclusive: 5.01 µM [inhibitor, full curve].
`Cc1cc(C(=O)N/N=C/c2ccc3c(c2)OCO3)c(C)o1` was tested, and the Potency was “inactive”.
In the case of `Cc1nnc(NC(=O)Cc2cccs2)s1`, the Potency is reported as active: 44.7 µM.
In the case of `COc1ccc(Cc2nnc(NC(=O)C3CCCO3)s2)cc1OC` (configuration not stated), the Potency is reported as inconclusive: 39.8 µM [inhibitor, single point].
`CCCCN(C)C(=O)c1ccc2c(=O)n3nc(Nc4cc(C)ccc4C)sc3nc2c1` was tested, and the Potency was inconclusive: 63.1 µM [inhibitor, partial curve, poor fit].
With `O=C(COC(=O)c1cc(-c2ccco2)nc2ccccc12)NCc1ccccc1` the Potency was inconclusive: 14.1 µM [inhibitor, full curve, poor fit].
`O=c1cc(CSc2nnnn2-c2ccccc2)[nH]c2[nH]n(-c3ccccc3)c(=O)c12` was tested, and the Potency was inconclusive: 15.8 µM [inhibitor, full curve, poor fit].
`CCCc1[nH]nc2c1C(c1ccncc1)C(C#N)=C(N)O2` (configuration not stated) was tested, and the Potency was inconclusive: 39.8 µM [inhibitor, partial curve, poor fit].
For `O=c1cc(CN2CCCc3ccccc32)nc2sccn12`, the Potency was inconclusive: 2.51 µM [inhibitor, partial curve, poor fit].
In the case of `Cc1nc2sc3c(c2c(=O)o1)CCCC3`, the Potency is reported as inconclusive: 11.2 µM [inhibitor, partial curve, poor fit].
